At least one compound was matched to its structure with a doubt left.
Biological target: Aurora B (Homo sapiens (Human), UniProt Q96GD4)
Assay: Aurora B kinase assay (mobility shift assay)
Type: biochemical
Conditions: ratio of Aurora B IC50 to Aurora A IC50
Procedure: Example A: Evaluation of Aurora a and Aurora B Inhibitory Effect—Kinase Assay
The inhibitory activities of a test compound against Aurora A and Aurora B were measured according to the following method.
The IC50 value of Aurora A and Aurora B kinase was performed by Sundia MediTech Co. Ltd. using Mobility shift assay.
• (1) Prepare a 1× kinase buffer [50 mM 4-(2-hydroxyethyl)-1-piperazineethanesulfonic acid (HEPES), PH 7.5, 0.01% Brij-35, 10 mM MgCl2, 2 mM dithiothreitol (DTT)]. • (2) Prepare compound:
The testing compound was dissolved with DMSO. The testing compound was diluted up to 100× final concentration in a 384-well plate. Transfer 250 nL of the compound dilution to a 384-well assay plate using Echo 550. […] Add 10 μL of the 1× kinase buffer to the negative control well. • (5) The 384-well plate was centrifuged at 1000 rpm for 30 seconds and incubated at room temperature for 10 min. • (6) A mixture of ATP and Kinase substrate 21 with a final concentration of 25/15× was prepared by the 1× kinase buffer. • (7) Add 15 μL of the mixture of 25/15×ATP and kinase substrate solution 21 to start reaction. • (8) The 384-well plate was centrifuged at 1000 rpm for 30 seconds and incubated at room temperature. • (9) 30 μL of the stop and detection buffer was added to stop the kinase reaction and centrifuged at 1000 rpm for 30 seconds. • (10) Collect data on Caliper EZ ReaderII. […]

By UniProt entry, the sequences of proteins in these tests, tags left out.
UniProt Q96GD4, whole entry: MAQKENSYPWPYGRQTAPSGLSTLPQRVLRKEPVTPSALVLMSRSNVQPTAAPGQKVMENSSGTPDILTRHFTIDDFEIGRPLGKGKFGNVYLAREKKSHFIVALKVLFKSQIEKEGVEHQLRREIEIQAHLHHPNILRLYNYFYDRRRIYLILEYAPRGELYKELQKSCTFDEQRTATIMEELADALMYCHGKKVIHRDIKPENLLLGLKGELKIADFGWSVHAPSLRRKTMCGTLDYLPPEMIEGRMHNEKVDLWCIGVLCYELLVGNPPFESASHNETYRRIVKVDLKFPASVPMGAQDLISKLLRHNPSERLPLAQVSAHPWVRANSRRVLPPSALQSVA

Cc1cc(Nc2cc(F)cc(C[C@@]3(C(=O)O)CCN(Cc4cccc(Cl)c4F)[C@H](C)C3)n2)n[nH]1 [Example 30, (2R,4R)-1-(3-chloro-2-fluorobenzyl)-4-((4-fluoro-6-((5-methyl-1H-pyrazol-3-yl)amino)pyridin-2-yl)methyl)-2-methylpiperidine-4-carboxylic acid]
IC50 Ratio Aur B/Aur A: 782

From US11384066B1, “Heterocyclic compounds useful as aurora a selective inhibitors” (Jacobio Pharmaceuticals Co., Ltd., priority 2020, dated 2022)
